Laboratory results from publication PMC7845632.
No constants are given. Whether binding was seen depends on the method and setting. In cells and extracts the contact can be indirect. Here binding means that the protein was enriched with, or labelled near, the bait; the list need not be complete.

B1: formin BP1 (FNBP1) (protein, UniProt Q96RU3 1-617)
chain: MSWGTELWDQFDNLEKHTQWGIDILEKYIKFVKERTEIELSYAKQLRNLSKKYQPKKNSKEEEEYKYTSCKAFISNLNEMNDYAGQHEVISENMASQIIVDLARYVQELKQERKSNFHDGRKAQQHIETCWKQLESSKRRFERDCKEADRAQQYFEKMDADINVTKADVEKARQQAQIRHQMAEDSKADYSSILQKFNHEQHEYYHTHIPNIFQKIQEMEERRIVRMGESMKTYAEVDRQVIPIIGKCLDGIVKAAESIDQKNDSQLVIEAYKSGFEPPGDIEFEDYTQPMKRTVSDNSLSNSRGEGKPDLKFGGKSKGKLWPFIKKNKLMSLLTSPHQPPPPPPASASPSAVPNGPQSPKQQKEPLSHRFNEFMTSKPKIHCFRSLKRGLSLKLGATPEDFSNLPPEQRRKKLQQKVDELNKEIQKEMDQRDAITKMKDVYLKNPQMGDPASLDHKLAEVSQNIEKLRVETQKFEAWLAEVEGRLPARSEQARRQSGLYDSQNPPTVNNCAQDRESPDGSYTEEQSQESEMKVLATDFDDEFDDEEPLPAIGTCKALYTFEGQNEGTISVVEGETLYVIEEDKGDGWTRIRRNEDEEGYVPTSYVEVCLDKNAKDS
B2: SLC1A5 (ASCT2) (protein, UniProt Q15758 1-541)
chain: MVADPPRDSKGLAAAEPTANGGLALASIEDQGAAAGGYCGSRDQVRRCLRANLLVLLTVVAVVAGVALGLGVSGAGGALALGPERLSAFVFPGELLLRLLRMIILPLVVCSLIGGAASLDPGALGRLGAWALLFFLVTTLLASALGVGLALALQPGAASAAINASVGAAGSAENAPSKEVLDSFLDLARNIFPSNLVSAAFRSYSTTYEERNITGTRVKVPVGQEVEGMNILGLVVFAIVFGVALRKLGPEGELLIRFFNSFNEATMVLVSWIMWYAPVGIMFLVAGKIVEMEDVGLLFARLGKYILCCLLGHAIHGLLVLPLIYFLFTRKNPYRFLWGIVTPLATAFGTSSSSATLPLMMKCVEENNGVAKHISRFILPIGATVNMDGAALFQCVAAVFIAQLSQQSLDFVKIITILVTATASSVGAAGIPAGGVLTLAIILEAVNLPVDHISLILAVDWLVDRSCTVLNVEGDALGAGLLQNYVDRTESRSTEPELIQVKSELPLDPLPVPTEEGNPLLKHYRGPAGDATVASEKESVM
B3: podocalyxin-like protein (PODXL) (protein, UniProt O00592 23-558)
chain: SPSPSPSPSQNATQTTTDSSNKTAPTPASSVTIMATDTAQQSTVPTSKANEILASVKATTLGVSSDSPGTTTLAQQVSGPVNTTVARGGGSGNPTTTIESPKSTKSADTTTVATSTATAKPNTTSSQNGAEDTTNSGGKSSHSVTTDLTSTKAEHLTTPHPTSPLSPRQPTSTHPVATPTSSGHDHLMKISSSSSTVAIPGYTFTSPGMTTTLLETVFHHVSQAGLELLTSGDLPTLASQSAGITASSVISQRTQQTSSQMPASSTAPSSQETVQPTSPATALRTPTLPETMSSSPTAASTTHRYPKTPSPTVAHESNWAKCEDLETQTQSEKQLVLNLTGNTLCAGGASDEKLISLICRAVKATFNPAQDKCGIRLASVPGSQTVVVKEITIHTKLPAKDVYERLKDKWDELKEAGVSDMKLGDQGPPEEAEDRFSMPLIITIVCMASFLLLVAALYGCCHQRLSQRKDQQRLTEELQTVENGYHDNPTLEVMETSSEMQEKKVVSLNGELGDSWIVPLDNLTKDDLDEEEDTHL

Tests used:
[1] = target: TmeA-BirA (C. trachomatis L2); assay: proximity labelling
[2] = target: TmeA-BirA (C. trachomatis L2); assay: proximity labelling; BirA (BioID) fusions nucleofected into HeLa, 24 h with biotin, biotinylated proteins isolated with Avidin beads, eluates probed by immunoblot with protein-specific antibodies; multiple experiments

Binder	binding [1]	binding [2]
B1	binds	
B2	binds	binds
B3	binds	
